Data as given in PubChem BioAssay AID504793 (Drosophila RNAi Screening Center, 2011)
In all, the deposit lists about 23,000 reagents; shown is a random part of those with a known target gene and a result. Over the whole deposit, 62 (0.27%) got an active call. 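Calls come from follow-up tests whose scores are not deposited, so confirmed genes may have low counts here; counts are not normalised per plate.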 Raw values are not corrected between plates. A plus sign joins genes that one reagent is predicted to hit. Reagent sequences are not shown.

Purpose: 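Knock-downs allowing continued mitosis even though DNA is damaged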 (primary screen)
Cells: Drosophila S2R+ cells
Knock-down reagent: long dsRNA against Drosophila genes, about 0.25 µg dsRNA per well
Time to read-out: 4 days of dsRNA, then 4 hours of drug before read-out
Challenge: doxorubicin 0.5 µM for 4 hours to cause double-strand breaks, in cells also given a low, harmless dose of dsRNA against nbs to sensitise the assay
Detection: 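Mitotic index as the number of phospho-histone H3-positive cells in each well following doxorubicin, given as raw counts without normalisation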
Direction: mitotic cells: higher = more cells in mitosis, weaker G2 arrest
Hit rule: 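a call needs confirmation in secondary tests, with other dsRNAs and a check of mitotic timing without damage, not just a high primary count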
Calls: active = confirmed in follow-up tests; inactive = not confirmed

The first 4 entries, to show the layout:
| Target gene | DRSC id | mitotic cells, replicate 1 | Outcome |
| --- | --- | --- | --- |
| ine | DRSC00822 | 9 | inactive |
| ine | DRSC28874 | 4 | inactive |
| CG4073 | DRSC15542 | 3 | inactive |
| CG14422 | DRSC17919 | 5 | inactive |

The listing, repeating the preview:
| Target gene | DRSC id | mitotic cells, replicate 1 | Outcome |
| --- | --- | --- | --- |
| ine | DRSC00822 | 9 | inactive |
| ine | DRSC28874 | 4 | inactive |
| CG4073 | DRSC15542 | 3 | inactive |
| CG14422 | DRSC17919 | 5 | inactive |
| CG14422 | DRSC25359 | 6 | inactive |
| Snapin + HemK2 | DRSC26185 | 2 | inactive |
| fkh | DRSC16949 | 10 | inactive |
| fkh | DRSC28213 | 3 | inactive |
| CG9706 | DRSC11095 | 5 | inactive |
| alpha-Man-Ia | DRSC17642 | 4 | inactive |
| alpha-Man-Ia | DRSC18162 | 7 | inactive |
| alpha-Man-Ia | DRSC18163 | 11 | inactive |
| alpha-Man-Ia | DRSC18735 | 12 | inactive |
| alpha-Man-Ia | DRSC23100 | 16 | inactive |
| Cadps | DRSC22200 | 9 | inactive |
| Cadps | DRSC29264 | 10 | inactive |
| CG14070 | DRSC02373 | 6 | inactive |
| CG7739 | DRSC10910 | 7 | inactive |
| ninaD | DRSC02886 | 3 | inactive |
| ninaD | DRSC24484 | 6 | inactive |
| CG4988 | DRSC02800 | 4 | inactive |
| RpS21 | DRSC00833 | 6 | inactive |
| RpS21 | DRSC28234 | 3 | inactive |
| alien + CG17906 | DRSC02641 | 2 | inactive |
| CG5707 | DRSC08573 | 6 | inactive |
| CG5707 | DRSC24854 | 4 | inactive |
| CG11068 | DRSC19369 | 6 | inactive |
| CG17010 | DRSC02559 | 3 | inactive |
| CG17010 | DRSC29558 | 8 | inactive |
| CG5335 | DRSC06931 | 4 | inactive |
| CG5335 | DRSC26565 | 5 | inactive |
| temp | DRSC18271 | 7 | inactive |
| CG18540 | DRSC06767 | 7 | inactive |
| CG18540 | DRSC26991 | 4 | inactive |
| CG4042 | DRSC11751 | 5 | inactive |
| CG4042 | DRSC29114 | 6 | inactive |
| CG3529 | DRSC10369 | 6 | inactive |
| CG3529 | DRSC25300 | 6 | inactive |
| CG9837 | DRSC16573 | 6 | inactive |
| CG9837 | DRSC27966 | 5 | inactive |
| CG18294 + 825-Oak + CG32214 + 2 more | DRSC22210 | 4 | inactive |
| hyx | DRSC14462 | 2 | inactive |
| Tsp42Eh | DRSC06190 | 4 | inactive |
| CG33557 | DRSC17854 | 10 | inactive |
| Ugt303A1 | DRSC15641 | 5 | inactive |
